This test has as its target T1, GST-Snf7 (budding yeast (W303 chromosomal DNA)) (UniProt P39929).
T1 sequence: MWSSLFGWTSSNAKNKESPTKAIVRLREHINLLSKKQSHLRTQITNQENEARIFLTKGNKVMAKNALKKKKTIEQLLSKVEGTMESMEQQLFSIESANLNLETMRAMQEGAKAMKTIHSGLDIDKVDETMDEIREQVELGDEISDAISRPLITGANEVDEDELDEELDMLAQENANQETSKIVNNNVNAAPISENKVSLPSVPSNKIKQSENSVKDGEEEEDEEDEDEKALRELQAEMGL
Kind of test: pull-down.

The text below walks through data of paper doi:10.1101/049148.

These are yes or no findings as the source states them, for the method shown. Sequences can lack the tags named with a protein.

B1: recombinant heh2(1-308)-His6 (domain or fragment, UniProt Q03281 1-308)
chain: MDHRNLDPKTLKVSQLRRVLVENDVAFPANARKPVLVKLFEEKVRQRLQSSPEASKVRTSIQKVVKSGAKNADRKKTLKSKKLESSSSESKTVKDENVETNKRKREQISTDNEAKMQIQEEKSPKKKRKKRSSKANKPPESPPQSKSDGKATSADLTSELETVEELHKKDSSDDKPRVKELPKPELPNLKVSNEFLAQLNKELASAATENYDHSIKSTDLSSIRIETEEPVGPSTGAETRNESEVMENINLEVQPEVKEAKEELTKISETFDNQDEEDTSRLSSKKNIRSPKGRTRHFIANKTKRGID
Take B1: the binding result was “no binding”.
